In the supplement of paper PMC12819154, “High-throughput peptide-centric local stability assay extends protein–ligand identification to membrane proteins, tissues and bacteria” (Nature Structural & Molecular Biology, 2025):
The other results are listed elsewhere or left out. Most values lie at the level of the controls, where differences are scatter.

By UniProt entry, the sequences of proteins in these tests, tags left out. Where a name states a change or a piece, a line headed by the entry shows the natural chain unless it says otherwise.
UniProt P02452, whole entry: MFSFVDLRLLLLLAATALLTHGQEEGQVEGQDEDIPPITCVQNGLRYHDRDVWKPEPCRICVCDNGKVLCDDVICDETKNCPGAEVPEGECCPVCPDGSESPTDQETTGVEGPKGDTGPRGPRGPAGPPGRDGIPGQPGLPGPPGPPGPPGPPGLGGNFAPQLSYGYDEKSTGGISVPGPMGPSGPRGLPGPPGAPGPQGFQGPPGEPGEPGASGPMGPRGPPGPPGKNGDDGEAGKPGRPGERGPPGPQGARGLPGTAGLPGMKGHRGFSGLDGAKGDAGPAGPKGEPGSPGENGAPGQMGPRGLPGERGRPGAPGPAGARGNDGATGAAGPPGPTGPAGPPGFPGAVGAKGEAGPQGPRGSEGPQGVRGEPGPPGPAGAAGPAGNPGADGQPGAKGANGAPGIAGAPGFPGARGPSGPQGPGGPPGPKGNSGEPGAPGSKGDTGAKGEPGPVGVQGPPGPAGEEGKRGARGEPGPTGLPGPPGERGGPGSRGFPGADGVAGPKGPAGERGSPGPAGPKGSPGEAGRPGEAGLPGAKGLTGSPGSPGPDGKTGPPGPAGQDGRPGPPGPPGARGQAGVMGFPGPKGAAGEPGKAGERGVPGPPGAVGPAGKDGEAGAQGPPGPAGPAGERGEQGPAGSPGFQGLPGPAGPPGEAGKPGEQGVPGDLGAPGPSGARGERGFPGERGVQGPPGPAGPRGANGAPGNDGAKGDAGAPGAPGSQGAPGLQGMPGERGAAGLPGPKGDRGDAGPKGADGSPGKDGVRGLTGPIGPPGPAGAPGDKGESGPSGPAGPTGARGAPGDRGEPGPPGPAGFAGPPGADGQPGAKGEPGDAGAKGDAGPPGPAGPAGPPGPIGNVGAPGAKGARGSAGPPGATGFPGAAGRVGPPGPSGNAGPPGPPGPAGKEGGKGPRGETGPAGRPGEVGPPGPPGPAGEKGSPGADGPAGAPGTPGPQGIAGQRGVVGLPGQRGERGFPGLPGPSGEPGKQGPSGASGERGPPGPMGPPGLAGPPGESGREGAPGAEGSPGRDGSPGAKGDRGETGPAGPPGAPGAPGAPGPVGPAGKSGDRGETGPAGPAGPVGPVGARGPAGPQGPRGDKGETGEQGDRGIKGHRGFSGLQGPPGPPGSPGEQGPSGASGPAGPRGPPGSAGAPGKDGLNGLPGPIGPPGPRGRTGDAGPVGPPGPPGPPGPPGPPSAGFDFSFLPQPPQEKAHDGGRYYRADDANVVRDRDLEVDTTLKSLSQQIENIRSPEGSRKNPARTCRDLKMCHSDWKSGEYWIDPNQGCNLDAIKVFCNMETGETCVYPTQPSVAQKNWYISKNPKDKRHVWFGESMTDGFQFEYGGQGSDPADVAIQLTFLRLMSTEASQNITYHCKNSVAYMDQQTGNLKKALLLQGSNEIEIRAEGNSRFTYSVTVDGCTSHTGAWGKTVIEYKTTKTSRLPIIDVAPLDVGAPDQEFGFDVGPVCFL
UniProt P04054: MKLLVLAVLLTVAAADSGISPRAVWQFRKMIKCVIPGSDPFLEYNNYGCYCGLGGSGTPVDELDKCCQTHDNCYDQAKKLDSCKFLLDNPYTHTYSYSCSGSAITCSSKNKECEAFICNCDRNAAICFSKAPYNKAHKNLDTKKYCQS
UniProt P02792: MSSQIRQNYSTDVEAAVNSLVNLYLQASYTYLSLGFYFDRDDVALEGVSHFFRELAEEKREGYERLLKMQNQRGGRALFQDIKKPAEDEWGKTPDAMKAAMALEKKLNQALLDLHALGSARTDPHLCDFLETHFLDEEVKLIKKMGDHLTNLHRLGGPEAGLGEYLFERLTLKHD
UniProt P07205: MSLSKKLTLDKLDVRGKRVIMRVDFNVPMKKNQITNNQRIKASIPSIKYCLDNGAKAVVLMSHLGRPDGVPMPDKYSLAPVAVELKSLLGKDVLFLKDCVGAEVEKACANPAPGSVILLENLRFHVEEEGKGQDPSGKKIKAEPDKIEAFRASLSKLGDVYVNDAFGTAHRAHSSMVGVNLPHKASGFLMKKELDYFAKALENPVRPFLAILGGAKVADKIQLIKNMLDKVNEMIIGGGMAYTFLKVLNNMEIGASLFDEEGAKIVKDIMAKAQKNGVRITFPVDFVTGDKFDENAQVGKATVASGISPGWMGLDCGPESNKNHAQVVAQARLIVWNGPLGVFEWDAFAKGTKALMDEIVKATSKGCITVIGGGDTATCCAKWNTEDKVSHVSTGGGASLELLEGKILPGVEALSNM
UniProt P10075: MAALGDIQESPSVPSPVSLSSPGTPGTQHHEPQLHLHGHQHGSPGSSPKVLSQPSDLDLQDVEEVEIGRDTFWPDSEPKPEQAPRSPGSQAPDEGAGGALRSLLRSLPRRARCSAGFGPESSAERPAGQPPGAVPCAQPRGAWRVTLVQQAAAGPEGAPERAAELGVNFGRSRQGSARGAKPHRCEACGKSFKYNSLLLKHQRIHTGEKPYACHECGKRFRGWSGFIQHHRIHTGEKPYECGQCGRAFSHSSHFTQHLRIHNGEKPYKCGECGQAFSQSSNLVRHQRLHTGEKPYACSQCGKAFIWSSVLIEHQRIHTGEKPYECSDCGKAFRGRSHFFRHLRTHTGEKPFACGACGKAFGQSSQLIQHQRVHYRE
UniProt P05976, whole entry: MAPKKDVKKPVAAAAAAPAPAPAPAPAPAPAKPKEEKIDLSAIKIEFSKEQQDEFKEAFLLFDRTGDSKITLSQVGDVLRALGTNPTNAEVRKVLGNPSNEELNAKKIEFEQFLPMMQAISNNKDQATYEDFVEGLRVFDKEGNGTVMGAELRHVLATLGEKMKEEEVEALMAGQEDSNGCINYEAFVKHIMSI
UniProt P06732: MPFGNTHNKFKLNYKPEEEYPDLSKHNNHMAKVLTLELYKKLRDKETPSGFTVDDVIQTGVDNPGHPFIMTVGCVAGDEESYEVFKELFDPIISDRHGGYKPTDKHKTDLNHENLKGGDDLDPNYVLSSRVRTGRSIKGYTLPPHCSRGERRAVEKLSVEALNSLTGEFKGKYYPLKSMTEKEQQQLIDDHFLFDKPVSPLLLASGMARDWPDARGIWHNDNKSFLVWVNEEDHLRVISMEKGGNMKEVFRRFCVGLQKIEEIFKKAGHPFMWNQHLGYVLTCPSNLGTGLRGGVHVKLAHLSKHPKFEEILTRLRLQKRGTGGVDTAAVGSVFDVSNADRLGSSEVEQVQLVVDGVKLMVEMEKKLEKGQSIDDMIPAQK
UniProt P10827: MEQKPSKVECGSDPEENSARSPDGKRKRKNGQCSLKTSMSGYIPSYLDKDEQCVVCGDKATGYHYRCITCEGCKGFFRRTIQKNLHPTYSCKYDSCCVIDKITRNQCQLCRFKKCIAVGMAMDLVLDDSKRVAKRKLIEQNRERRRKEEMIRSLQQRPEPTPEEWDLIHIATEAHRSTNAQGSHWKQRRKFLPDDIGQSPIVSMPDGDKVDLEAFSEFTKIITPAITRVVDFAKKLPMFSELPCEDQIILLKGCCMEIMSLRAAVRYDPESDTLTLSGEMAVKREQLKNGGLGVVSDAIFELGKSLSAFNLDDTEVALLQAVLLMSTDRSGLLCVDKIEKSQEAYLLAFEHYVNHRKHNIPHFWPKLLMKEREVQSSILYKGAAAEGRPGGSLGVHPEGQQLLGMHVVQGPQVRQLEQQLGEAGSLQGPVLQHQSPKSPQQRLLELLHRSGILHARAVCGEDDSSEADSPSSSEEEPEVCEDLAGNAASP
UniProt P02649, whole entry: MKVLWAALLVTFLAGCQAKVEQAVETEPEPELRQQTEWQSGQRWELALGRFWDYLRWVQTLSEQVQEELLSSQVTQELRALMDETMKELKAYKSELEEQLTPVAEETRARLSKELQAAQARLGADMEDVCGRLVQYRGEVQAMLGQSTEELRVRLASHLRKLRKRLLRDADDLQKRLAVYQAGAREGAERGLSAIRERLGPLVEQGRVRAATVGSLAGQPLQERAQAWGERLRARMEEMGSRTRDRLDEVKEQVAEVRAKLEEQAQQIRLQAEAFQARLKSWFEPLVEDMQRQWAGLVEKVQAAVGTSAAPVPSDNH
UniProt P11586, whole entry: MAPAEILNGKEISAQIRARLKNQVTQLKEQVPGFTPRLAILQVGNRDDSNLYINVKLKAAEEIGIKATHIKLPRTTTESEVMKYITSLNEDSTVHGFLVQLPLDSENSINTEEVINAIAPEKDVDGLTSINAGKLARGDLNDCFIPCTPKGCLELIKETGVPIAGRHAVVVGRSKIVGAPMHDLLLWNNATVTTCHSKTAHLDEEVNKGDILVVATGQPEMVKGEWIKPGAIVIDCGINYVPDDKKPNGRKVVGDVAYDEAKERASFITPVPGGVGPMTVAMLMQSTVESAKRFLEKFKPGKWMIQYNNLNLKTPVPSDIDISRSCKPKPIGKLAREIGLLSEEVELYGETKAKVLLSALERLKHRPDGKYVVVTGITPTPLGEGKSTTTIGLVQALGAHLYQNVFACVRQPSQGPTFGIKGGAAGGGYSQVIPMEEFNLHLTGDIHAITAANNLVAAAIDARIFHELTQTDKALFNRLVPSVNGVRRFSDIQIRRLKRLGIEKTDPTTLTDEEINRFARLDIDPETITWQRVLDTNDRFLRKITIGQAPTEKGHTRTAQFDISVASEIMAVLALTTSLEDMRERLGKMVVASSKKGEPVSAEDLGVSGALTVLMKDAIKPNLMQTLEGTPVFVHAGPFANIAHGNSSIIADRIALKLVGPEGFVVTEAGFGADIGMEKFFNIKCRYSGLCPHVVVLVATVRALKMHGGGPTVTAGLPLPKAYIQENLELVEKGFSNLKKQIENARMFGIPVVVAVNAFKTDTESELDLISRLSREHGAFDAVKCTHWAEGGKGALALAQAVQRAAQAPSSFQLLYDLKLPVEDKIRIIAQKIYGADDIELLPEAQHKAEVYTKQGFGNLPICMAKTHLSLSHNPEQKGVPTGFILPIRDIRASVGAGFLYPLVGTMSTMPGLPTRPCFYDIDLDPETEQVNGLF
UniProt P10746: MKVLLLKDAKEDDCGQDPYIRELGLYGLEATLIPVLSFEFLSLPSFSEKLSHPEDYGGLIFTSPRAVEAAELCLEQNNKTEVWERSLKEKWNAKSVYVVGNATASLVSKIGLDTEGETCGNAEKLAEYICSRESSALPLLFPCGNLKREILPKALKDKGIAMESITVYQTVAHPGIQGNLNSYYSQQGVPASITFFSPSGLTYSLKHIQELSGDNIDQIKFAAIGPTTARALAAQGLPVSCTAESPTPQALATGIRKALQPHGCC

Each target was assayed with CN[C@@H]1C[C@H]2O[C@@](C)([C@@H]1OC)n1c3ccccc3c3c4c(c5c6ccccc6n2c5c31)C(=O)NC4 [staurosporine] (assay: log2 fold change of tryptic peptide abundance, ligand vs vehicle (limited proteolysis) (log2 ratio); higher = more trypsin-susceptible (destabilized)). Conditions: ligand concentration: 20 uM; sample: K562 cleared lysate; digestion: 4 min, 22 C (HT-PELSA RT4min, Orbitrap Astral).
Work on “COL1A1 (peptide sequence: GSEGPQGVR, peptide start residue: 362) (UniProt P02452)” yielded a log2 fold change of -0.261.
Target “UniProt P04054 (peptide sequence: NAAICFSK, peptide start residue: 123)” has a log2 fold change of 0.0201.
For “FTL (peptide sequence: KLNQALLDLHALGSAR, peptide start residue: 106) (UniProt P02792)”, the log2 fold change was 0.213.
In the case of “PGK2 (peptide sequence: LGDVYVNDAFGTAHR, peptide start residue: 157) (UniProt P07205)”, the log2 fold change is reported as -0.0826.
In the case of “UniProt P10075 (peptide sequence: AFIWSSVLIEHQR, peptide start residue: 303)”, the log2 fold change is reported as -0.726.
In the case of “MYL1 (peptide sequence: HVLATLGEK, peptide start residue: 157) (UniProt P05976)”, the log2 fold change is reported as -0.0941.
“CKM (peptide sequence: GIWHNDNK, peptide start residue: 216) (UniProt P06732)” was tested, and the log2 fold change was -0.173.
In the case of “UniProt P10827 (peptide sequence: GCCMEIMSLR, peptide start residue: 253)”, the log2 fold change is reported as -0.196.
“APOE (peptide sequence: LAVYQAGAR, peptide start residue: 177) (UniProt P02649)” was tested, and the log2 fold change was 0.205.
With “MTHFD1 (peptide sequence: TTTESEVMK, peptide start residue: 75) (UniProt P11586)” the log2 fold change was -0.157.
For “UROS (peptide sequence: FAAIGPTTAR, peptide start residue: 221) (UniProt P10746)”, the log2 fold change was 0.0235.
